From patent publication US8106037B2, “Identification and treatment of estrogen responsive prostate tumors” (The Brigham and Women's Hospital, Inc., priority 2007, dated 2012)
At least one compound was matched to its structure with a doubt left.

System: NCI-H660 prostate cancer cell line
Assay: Cell growth assay (Cell Titer-Glo luminescent assay)
Assay type: cell-based
Settings: final concentration 10^−8M, relative cell number 2-12 d
Procedure: The prostate cancer cell lines NCI-[…] and VCaP were maintained according to ATCC instructions. […] NCI-[…] cells were seeded in a 96-well plate ( 5×10^3 cells/well) and stimulated with hormone or vehicle alone. Relative cell number was determined before (time 0 used for normalization) and after stimulation (2, 3, 6, 8, 10, 12 d) using the Cell Titer-Glo luminescent assay (Promega).

## CCCc1c(-c2ccc(O)cc2)nn(-c2ccc(O)cc2)c1-c1ccc(O)cc1 [PPT, propylpyrazole triol]
  growth of NCI-H660 cells: growth stimulation
